Test results published in paper PMC2175515, “Hfq stimulates the activity of the CCA-adding enzyme”.
Results are given in words; binding and its absence hold for the method and conditions named.

Protein sequences, listed by entry. Tags and fused reporters are not part of them.
UniProt P0A6X3: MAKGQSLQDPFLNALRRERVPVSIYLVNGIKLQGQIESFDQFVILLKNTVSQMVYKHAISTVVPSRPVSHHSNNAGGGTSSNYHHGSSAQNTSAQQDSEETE

Target: Hfq (Escherichia coli, UniProt P0A6X3 1-102)
Experiment: native gel or EMSA; 5'-32P-labelled tRNA without CCA end incubated with Hfq and CCA-adding enzyme for 1 and 10 min; 30 mM HEPES/KOH pH 7.6, 30 mM KCl, 6 mM MgCl2, 2 mM DTT, 30°C; native 6% polyacrylamide gel, autoradiography (only the labelled tRNA is seen); both purified

B1: E. coli CCA-adding enzyme (enzyme, UniProt P06961 1-412)
chain: MKIYLVGGAVRDALLGLPVKDRDWVVVGSTPQEMLDAGYQQVGRDFPVFLHPQTHEEYALARTERKSGSGYTGFTCYAAPDVTLEDDLKRRDLTINALAQDDNGEIIDPYNGLGDLQNRLLRHVSPAFGEDPLRVLRVARFAARYAHLGFRIADETLALMREMTHAGELEHLTPERVWKETESALTTRNPQVFFQVLRDCGALRVLFPEIDALFGVPAPAKWHPEIDTGIHTLMTLSMAAMLSPQVDVRFATLCHDLGKGLTPPELWPRHHGHGPAGVKLVEQLCQRLRVPNEIRDLARLVAEFHDLIHTFPMLNPKTIVKLFDSIDAWRKPQRVEQLALTSEADVRGRTGFESADYPQGRWLREAWEVAQSVPTKAVVEAGFKGVEIREELTRRRIAAVASWKEQRCPKPE
B1 was tested, and the binding was “no binding (tested: 7.5 pmol Hfq and 5 pmol tRNA)”.
